PubChem BioAssay AID1224830, NIAID, 2016
Test: 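Regulators of TLR4 signalling towards TNF-alpha in macrophage-like cells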 (primary screen). System: human THP-1 monocytic leukaemia cells, TNF dual-luciferase reporter clone, PMA-differentiated to macrophage-like cells. Reagent: siRNA pool against human genes, 50 nM. Timing: LPS for 4 h, given about 3 days after siRNA transfection. Conditions: bacterial LPS (TLR4 ligand), 10 ng/ml. Read-out: 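Ratio of firefly to renilla light, scaled to the plate median and expressed as a robust z-score per replicate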. Scale: TNF reporter robust z-score: higher = stronger TNF reporter response to LPS. Active means: 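Each well counts as active if its z-score is over 2.8 or under -1.5; controls are left without a call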.
This is a random part of about 18,000 deposited reagents. About 2,900 of all reagents (16%) were called active. 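Calls are made per well; low scores hint the gene aids the LPS response, high scores that it dampens it.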 A number with no mark means an inactive call. Repeated entries: four replicate wells of each siRNA pool. No sequences are given here.

gene | TNF reporter robust z-score
ETV4 | -0.57
ETV4 | 0.44
ETV4 | -0.28
ETV4 | 0.25
VCF1 | 0.7
VCF1 | 1.19
VCF1 | 1.99
VCF1 | 1.2
LMLN | 0.08
LMLN | 7.85 (active)
LMLN | 0.09
LMLN | 0.49
MYO10 | 6.23 (active)
MYO10 | 0.21
MYO10 | -1.08
MYO10 | -1.03
PTPRC | -1.45
PTPRC | -0.93
PTPRC | -0.44
PTPRC | 0.22
SAMD12 | 0.06
SAMD12 | 1.23
SAMD12 | 2.34
SAMD12 | 1.71
SF3A3 | -0.46
SF3A3 | -0.82
SF3A3 | -0.6
SF3A3 | 0.14
CLGN | -0.33
CLGN | -1.19
CLGN | 1.19
CLGN | 0.98
PRCD | 0.33
PRCD | 0.14
PRCD | -0.75
PRCD | -1.01
SLF2 | 0.14
SLF2 | -0.49
SLF2 | 0.33
SLF2 | -1.48
RDH12 | -0.15
RDH12 | 0.22
RDH12 | -0.82
ZKSCAN1 | 1.65
ZKSCAN1 | 1.21
ZKSCAN1 | 1.6
GPR148 | 1.64
GPR148 | 0.02
GPR148 | -0.55
GPR148 | 1.19

Next part, starting with the last 5 of the part before.
gene | TNF reporter robust z-score
ZKSCAN1 | 1.6
GPR148 | 1.64
GPR148 | 0.02
GPR148 | -0.55
GPR148 | 1.19
HM13 | -0.67
HM13 | 1.39
HM13 | 0.92
HM13 | 2.74
SNAP91 | 2.8 (active)
SNAP91 | 0.37
SNAP91 | -0.61
SNAP91 | -0.38
PGPEP1 | -0.62
PGPEP1 | 0.08
PGPEP1 | -0.99
PGPEP1 | 1.43
CLVS2 | -0.63
CLVS2 | -0.06
CLVS2 | -0.69
CLVS2 | -0.85
GIPC2 | 0.49
GIPC2 | 0.68
GIPC2 | -0.47
GIPC2 | 0.11
UBAP1 | -0.04
UBAP1 | 0.18
UBAP1 | -0.83
UBAP1 | -0.7
KIF15 | 0.44
KIF15 | 1.77
KIF15 | 0.42
KIF15 | 1.14
SI | -1.55 (active)
SI | -0.59
SI | -0.55
SI | -0.21
SEPTIN12 | -0.83
SEPTIN12 | -0.75
SEPTIN12 | -0.64
NDUFB2 | -1.06
NDUFB2 | -1.28
NDUFB2 | -0.55
NDUFB2 | 0.75
PTPA | 1.14
PTPA | 1.27
PTPA | 0.93
PTPA | 0.3
PDE7A | -0.68
PDE7A | -0.7
PDE7A | 0.65
PDE7A | -0.65
SERPINB5 | -0.21
SERPINB5 | 0.5
SERPINB5 | -0.42
SERPINB5 | -0.44
ANKS6 | 0.37
ANKS6 | 0.71
ANKS6 | -0.16
ANKS6 | 0.19
OR1N1 | 2.03
OR1N1 | 0.24
OR1N1 | 1.27
OR1N1 | -0.58
MEX3C | -0.01
MEX3C | 0.14
MEX3C | -0.35
MEX3C | 0.59
